The values below come from US20050144661A1 (WASHINGTON UNIVERSITY, published 2005).

These are yes or no findings as the source states them, for the method shown. Some entries that bind do so weakly or less than the wild type.

The experiment deals with CLuc-14-3-3ε (Photinus pyralis) [luciferase: P08659]. The experiment in a line: LCI, live HEK-293 cells.

B1: Cdc25C-NLuc (other, human;Photinus pyralis, UniProt P30307 1-473, looked up)
chain: MSTELFSSTREEGSSGSGPSFRSNQRKMLNLLLERDTSFTVCPDVPRTPVGKFLGDSANLSILSGGTPKRCLDLSNLSSGEITATQLTTSADLDETGHLDSSGLQEVHLAGMNHDQHLMKCSPAQLLCSTPNGLDRGHRKRDAMCSSSANKENDNGNLVDSEMKYLGSPITTVPKLDKNPNLGEDQAEEISDELMEFSLKDQEAKVSRSGLYRSPSMPENLNRPRLKQVEKFKDNTIPDKVKKKYFSGQGKLRKGLCLKKTVSLCDITITQMLEEDSNQGHLIGDFSKVCALPTVSGKHQDLKYVNPETVAALLSGKFQGLIEKFYVIDCRYPYEYLGGHIQGALNLYSQEELFNFFLKKPIVPLDTQKRIIIVFHCEFSSERGPRMCRCLREEDRSLNQYPALYYPELYILKGGYRDFFPEYMELCEPQSYCPMHHQDHKTELLRCRSQSKVQEGERQLREQIALLVKDMSPEDAKNIKKGPAPFYPLEDGTAGEQLHKAMKRYALVPGTIAFTDAHIEVNITYAEYFEMSVRLAEAMKRYGLNTNHRIVVCSENSLQFFMPVLGALFIGVAVAPANDIYNERELLNSMNISQPTVVFVSKKGLQKILNVQKKLPIIQKIIIMDSKTDYQGFQSMYTFVTSHLPPGFNEYDFVPESFDRDKTIALIMNSSGSTGLPKGVALPHRTACVRFSHARDPIFGNQIIPDTAILSVVPFHHGFGMFTTLGYLICGFRVVLMYRFEEELFLRSLQDYKIQSALLVPTLFSFFAKSTLIDKYDLSNLHEIASGGAPLSKEVGEAVAKRFHLPGIRQGYGLTETTSAILITPEGDDKPGAVGKVVPFFEAKVVDLDTGKTLGVNQRGELCVRGPMIMSGYVNNPEATNALIDKDG
modifications: phosphorylated on S216 in the cells (Western blot, reduced by UCN-01)
notes: FRB of the NLuc fusion vector replaced by the Cdc25C open reading frame; not shown: Gly/Ser linker region reconstituted up to the BsiWI site
Consider B1, for which the binding entry was “binds”.
